# Experimental data taken from PubChem BioAssay AID540276 (National Center for Advancing Translational Sciences (NCATS), 2011).
# Where “and” joins values, the source holds several entries; their conditions need not be identical. Equal values may be shown once. Screen size: about 300,000 compounds; about 5,400 (1.8%) were called active. The shares of active, inactive and inconclusive entries below differ from those in the screen. Calls come from the whole dose curve; tested in HEK293 cells. Where the call is inconclusive, the potency comes from a doubtful curve fit.
# Assay: qHTS for inhibitors of binding or entry into cells for Marburg Virus
# Settings: Marburg virus pseudotyped entry inhibition, cell reporter; series mostly up to 37.8 µM
# Potency is the fitted concentration of half-maximal effect.
row,Structure (SMILES),Potency
1,Cc1c(C(=O)NCCCN2CCCC2=O)oc2c(Cl)cccc12,"inconclusive: 5.62 µM [inhibitor, full curve]"
2,NS(=O)(=O)c1ccc(N2N=C(c3ccccc3)CC2c2ccc(F)cc2)cc1 (stereo not drawn),"inconclusive: 35.5 µM [inhibitor, single point]"
3,O=C(NC(=S)Nc1nc2ccccc2s1)c1ccco1,"inconclusive: 0.501 µM [activator, partial curve, poor fit]"
4,COc1ccc(Nc2ncc(C(=O)Nc3cc(C)ccc3OC)c3ccccc23)cc1,"inconclusive: 35.5 µM [inhibitor, single point]"
5,COc1ccc(N2CCN(c3oc(COc4ccc(Cl)cc4)nc3C#N)CC2)cc1,"inconclusive: 6.31 µM [inhibitor, single point]"
6,NC(=O)c1c(NC(=O)c2cccc(N3C(=O)CCC3=O)c2)sc2c1CCCCC2,"inconclusive: 2 µM [inhibitor, full curve, poor fit]"
7,Cc1oc2ccc(O)cc2c1C(=O)c1ccc(Cl)cc1,inactive
8,Cc1ccc(CN2CCC(n3nccc3NC(=O)c3ccccc3C)CC2)o1,inactive
9,Cc1ccc(C)c(S(=O)(=O)N2CCCC2CNC(=O)c2ccc([N+](=O)[O-])cc2)c1 (stereo not drawn),"inconclusive: 35.5 µM [inhibitor, single point]"
10,CC(C)CCNC(=O)CN(Cc1ccco1)C(=O)c1snc(C(N)=O)c1N,"inconclusive: 35.5 µM [inhibitor, single point]"
11,Cc1nnc(SCc2nc3sc4c(c3c(=O)[nH]2)CCCC4)n(N)c1=O,inactive
12,CCc1nnc(NS(=O)(=O)c2ccc(N/C=C/C(=O)c3ccc(OC)cc3)cc2)s1,"inconclusive: 7.94 µM [activator, single point]"
13,COc1ccc(NC(=O)C2CC(c3cccc(Br)c3)=NO2)cc1OC (stereo not drawn),inactive
14,Cc1cc(C=O)c(C)n1-c1ccc(Oc2ccc([N+](=O)[O-])cn2)cc1,"inconclusive: 20.6 µM [inhibitor, single point]"
15,O=C(NCc1ccccc1)C(=O)Nc1nc(-c2ccccc2)cs1,"inconclusive: 0.631 µM [inhibitor, single point]"
16,O=C(N/N=C/c1cn(-c2ccccc2)nc1-c1cccs1)c1ccc(Cl)cc1,"inconclusive: 11.2 µM [inhibitor, partial curve, poor fit]"
17,CCn1cc(C(=O)NCc2ccc(Cl)cc2)c(=O)c2cc(S(=O)(=O)N(C)C)ccc21,"inconclusive: 35.5 µM [inhibitor, single point]"
18,COc1ccc(NC(=S)N(CCc2nc3cc(C)c(C)cc3[nH]2)Cc2cccnc2)cc1,"inconclusive: 29.1 µM [inhibitor, single point]"
19,CCc1ccccc1NC(=S)N(CCN1CCOCC1)C1CCN(C(C)=O)CC1,"inconclusive: 2.82 µM [inhibitor, partial curve, poor fit]"
20,CCOc1ccc2nc(N3CCCC(C(=O)NCc4ccc(OC)cc4)C3)sc2c1 (stereo not drawn),"inconclusive: 6.31 µM [activator, single point]"
21,CCN(CC)c1ccc(NC(=O)c2ccc3c(c2)c(C)c(C)n3C)cc1,"inconclusive: 35.5 µM [inhibitor, single point]"
22,COc1ccc(C(=O)C2CCCN(Cc3cccn3-c3cccnc3)C2)cc1OC (stereo not drawn),inactive
23,Cc1nc(Nc2ccc(F)cc2)[nH]c(=O)c1CCC(C)C,"inconclusive: 18.3 µM [inhibitor, partial curve]"

# Of the compounds above, two contain a nitro group on carbon:
row,Structure (SMILES),Potency
9,Cc1ccc(C)c(S(=O)(=O)N2CCCC2CNC(=O)c2ccc([N+](=O)[O-])cc2)c1 (stereo not drawn),"inconclusive: 35.5 µM [inhibitor, single point]"
14,Cc1cc(C=O)c(C)n1-c1ccc(Oc2ccc([N+](=O)[O-])cn2)cc1,"inconclusive: 20.6 µM [inhibitor, single point]"

# Later entries:

row,Structure (SMILES),Potency
1,CN(C)S(=O)(=O)c1cccc(COc2ccccc2C(=O)Nc2ccccc2)c1,"inconclusive: 10 µM [inhibitor, partial curve]"
2,CC(C)=CCCC(C)=CCON=C1C[C@@H](O)[C@@H](O)[C@@H]2[C@H]3C(=O)N(Cc4ccccc4)C(=O)[C@@H]3CC[C@@H]12,inactive
3,CCCn1c(=O)c(C(=O)Nc2cccc(C)n2)c(O)c2ccccc21,"inconclusive: 11.2 µM [activator, partial curve, poor fit]"
4,CCc1ccccc1NC(=O)CCCN1C(=O)COc2ccc(C)cc21,inactive
5,CCNc1nc(Oc2ccc(OCC(=O)OC)nn2)nc(N2CCOCC2)n1,inactive
6,CC[n+]1c(/C=C(\C)Nc2ccccc2)sc2ccccc21,"inconclusive: 6.31 µM [inhibitor, single point]"
7,O=C(COC(=O)c1ccc(S(=O)(=O)N2CCCC2)cc1)NCc1ccco1,inactive
8,CC(=O)Nc1ccc(/C=C/C(=O)c2ccc3c(c2)OCCO3)cc1,inactive
9,Cc1nc(NCC2CC2)c2nnn(Cc3ccccc3)c2n1,"inconclusive: 3.98 µM [inhibitor, partial curve, poor fit]"
10,O=S(=O)(NCC(c1ccco1)N1CCc2ccccc21)c1ccccc1 (stereo not drawn),"inconclusive: 8.91 µM [inhibitor, partial curve, poor fit]"
11,CCCn1nnnc1SCC(=O)N(C(C)C)C(C)C,inactive
12,COc1ccc(Cl)cc1N(CC(=O)N1CCCC1)S(=O)(=O)c1ccc(C)cc1,"inconclusive: 11.2 µM [inhibitor, partial curve, poor fit]"
13,CCC(O)C1CCN(C(=O)c2cc(COc3ccc4ncccc4c3)on2)CC1 (stereo not drawn),"inconclusive: 0.92 µM [inhibitor, full curve]"
14,Cc1cc(C)c(NC(=O)CCCCCNC2CCCCC2)c(C)c1,"inconclusive: 35.5 µM [inhibitor, single point]"
15,Cc1cc(C)nc(NC(=NCCc2c[nH]c3ccccc23)NC(=O)Nc2ccccc2)n1,active: 14.6 µM
16,Cc1cc(C)c(Nc2cc(S(=O)(=O)O)c(N)c3c2C(=O)c2ccccc2C3=O)c(C)c1,inactive
17,CC(C)(C)c1cc(C=C(C#N)C#N)cc(C(C)(C)C)c1O,active: 2.06 µM and active: 562 nM
18,CC(=O)c1ccc(NC(=S)N(CCCN(C)C)Cc2ccccc2)cc1,"inconclusive: 11.2 µM [inhibitor, single point]"
19,Cc1cccc(NC(=O)c2ccc(OC3CSC3)cc2)c1,"inconclusive: 9.2 µM [inhibitor, partial curve, poor fit]"
20,Cc1cc(Cl)ccc1NC(=O)CSc1nnc(Cc2cccs2)n1Cc1ccco1,"inconclusive: 6.51 µM [inhibitor, full curve]"
21,O=C(Nc1cccn(Cc2c(Cl)cccc2Cl)c1=O)c1ccccc1Cl,"inconclusive: 3.66 µM [inhibitor, single point]"
22,Cc1ccc(-n2ncc(Cl)c2C(=O)NC2CC2)cc1,"inconclusive: 3.55 µM [activator, partial curve, poor fit]"
23,O=C(NCc1cccnc1)c1ccc(CN2CCc3ccccc3C2)cc1,"inconclusive: 12.6 µM [inhibitor, single point]"

row,Structure (SMILES),Potency
1,O=C1NC2(CCCC2)N=C1c1ccc(F)cc1,inactive
2,CC(=O)N(C1=C(Cl)C(=O)c2ccccc2C1=O)C1CCCCC1,"inconclusive: 12.6 µM [inhibitor, partial curve, poor fit]"
3,CS(=O)(=O)N1N=C(c2ccccc2)CC1c1ccc2nccnc2c1 (stereo not drawn),inactive
4,Cc1cc(C)c(S(=O)(=O)NCCCn2ccnc2)cc1C,active: 3.55 µM
5,Cc1nn(-c2ccccc2)c(C)c1C(=O)OCC(=O)NCc1ccco1,inactive
6,COCCn1cnc2c(c1=O)c1nc3ccccc3nc1n2/N=C/c1cccc(OC)c1,"inconclusive: 35.5 µM [inhibitor, single point]"
7,Fc1cccc(Cl)c1CSc1nnnn1-c1ccc2c(c1)OCO2,"inconclusive: 29.1 µM [inhibitor, single point]"
8,Nc1nc(C2C(=O)CCCC2=O)cs1,inactive
9,CC(=O)COC(=O)CCc1nc2ccccc2[nH]c1=O,inactive
10,O=C(Nc1ccnn1C1CCN(Cc2ccc(OC(F)F)cc2)CC1)C1CCCC1,"inconclusive: 35.5 µM [inhibitor, partial curve, poor fit]"
11,CC(C)COC(=O)Nc1nnc(SCc2ccccc2F)s1,"inconclusive: 14.6 µM [activator, partial curve, poor fit]"
12,COc1ccc(NC2=C(c3ccc(OC)cc3)C(=O)c3ccccc32)cc1,inactive
13,CC(NC(=O)c1cccs1)C(S)c1ccccc1 (stereo not drawn),"inconclusive: 10 µM [inhibitor, partial curve, poor fit]"
14,c1ccc2c(c1)CCO[C@@H]2CNCCCN1CCCCC1,"inconclusive: 6.31 µM [inhibitor, full curve, poor fit]"
15,Cc1ccc(C)c(S(=O)(=O)N2CCN(C(=O)C3CC3C)CC2)c1 (stereo not drawn),inactive
16,O=C1CN(C(=O)COc2ccc(Cl)cc2Cl)C(c2ccc(F)cc2)c2cc(F)ccc2N1 (stereo not drawn),"inconclusive: 35.5 µM [inhibitor, single point]"
17,CCCCCCN1CC(C(=O)OCC)C(=O)C1=O (stereo not drawn),"inconclusive: 3.16 µM [inhibitor, single point]"
18,COc1ccccc1C1=NOC(COc2ccc3c(C)cc(=O)oc3c2)C1 (stereo not drawn),"inconclusive: 1.12 µM [inhibitor, full curve, poor fit]"
19,O=C(Cn1cnc2c(nnn2Cc2ccccc2F)c1=O)OCc1ccccc1,"inconclusive: 0.1 µM [activator, full curve, poor fit]"
20,COc1cc(/C=N/NC(=O)c2ccccn2)ccc1OC(=O)c1cccs1,"inconclusive: 2.82 µM [activator, full curve, poor fit]"
21,Cc1nc2ccccc2nc(C)c1=NOCc1ccc(C#N)cc1,"inconclusive: 3.26 µM [activator, single point]"
22,Cc1ccc(C(=O)N/N=C\c2ccc(OC(=O)c3cccs3)cc2)cn1,inactive

# Arranged by length of the SMILES (rising): some entries from above
row,Structure (SMILES),Potency
17,CCCCCCN1CC(C(=O)OCC)C(=O)C1=O (stereo not drawn),"inconclusive: 3.16 µM [inhibitor, single point]"
18,COc1ccccc1C1=NOC(COc2ccc3c(C)cc(=O)oc3c2)C1 (stereo not drawn),"inconclusive: 1.12 µM [inhibitor, full curve, poor fit]"
6,COCCn1cnc2c(c1=O)c1nc3ccccc3nc1n2/N=C/c1cccc(OC)c1,"inconclusive: 35.5 µM [inhibitor, single point]"
